Out of some 580,000 compounds screened, about 6,100 (1.1%) were called active. This list was built around the results that the source calls inconclusive (neither active nor inactive); the mix of calls is not that of the screen. Calls come from the whole dose curve; as a rule, active = well fitted inhibition curve with a large enough effect; inconclusive = small, poorly fitted or top-dose-only effect, or another doubt; inactive = no such curve, though single readings can be large or run the other way. Where the call is inconclusive, the potency comes from a doubtful curve fit.
Target: Polyunsaturated fatty acid lipoxygenase ALOX12 (Homo sapiens) (UniProt P18054)
Assay: Primary qHTS assay for inhibitors of human arachidonate 12S-lipoxygenase (ALOX12): Round 2
Conditions: purified 12hLO, xylenol orange hydroperoxide absorbance; activity change, negative = inhibition: at 108 µM (top of the series) unless noted
Outline: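 Purified human 12hLO at 150 nM in 25 mM Hepes, 0.01% Triton X-100, pH 7.0, preincubated 15 min at room temperature with compound. Reaction started with 40 uM arachidonic acid, 30 min at room temperature. Hydroperoxide measured by Fe-xylenol orange, 573/405 nm absorbance ratio.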
% is set by controls: 0 for no effect and ±100 for the full control effect; potency is the fitted concentration of half-maximal effect.

The chains behind the UniProt entries cited, without tags or fusion partners. Where a name states a change or a piece, a line headed by the entry shows the natural chain unless it says otherwise.
UniProt P18054: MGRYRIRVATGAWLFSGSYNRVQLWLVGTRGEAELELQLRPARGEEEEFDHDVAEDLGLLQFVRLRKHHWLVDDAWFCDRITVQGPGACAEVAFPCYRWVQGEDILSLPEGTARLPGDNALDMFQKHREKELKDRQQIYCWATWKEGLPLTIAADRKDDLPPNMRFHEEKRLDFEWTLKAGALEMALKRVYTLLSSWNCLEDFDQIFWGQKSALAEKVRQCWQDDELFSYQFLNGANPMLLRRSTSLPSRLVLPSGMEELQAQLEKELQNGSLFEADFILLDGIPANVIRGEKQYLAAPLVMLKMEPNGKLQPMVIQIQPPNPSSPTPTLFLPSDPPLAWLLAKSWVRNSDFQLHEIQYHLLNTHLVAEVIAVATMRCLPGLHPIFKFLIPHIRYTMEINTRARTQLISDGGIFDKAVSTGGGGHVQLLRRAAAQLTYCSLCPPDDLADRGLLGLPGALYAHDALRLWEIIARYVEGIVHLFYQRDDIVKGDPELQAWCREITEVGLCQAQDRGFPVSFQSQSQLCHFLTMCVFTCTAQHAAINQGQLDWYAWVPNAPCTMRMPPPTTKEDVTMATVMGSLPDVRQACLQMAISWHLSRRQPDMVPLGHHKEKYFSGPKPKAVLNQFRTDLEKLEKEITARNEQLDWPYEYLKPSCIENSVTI

| Structure (SMILES) | Potency | activity change, negative = inhibition |
| --- | --- | --- |
| Cc1nnc(-c2cc(C(=O)NCc3ccco3)ccn2)n1Cc1cccnc1 | inconclusive: 8.91 µM [inhibitor, full curve] | – |
| Cc1cccc(C(=O)N2C(C(=O)NCc3ccccc3)COC23CCN(C(=O)CC(C)C)CC3)c1 (stereo not drawn) | – | inactive: 103% |
| CCN1/C(=C/c2ccc3cc(C)ccc3[n+]2CC)Sc2ccccc21 | active: 44.7 µM | – |
| Oc1ccc(Cl)cc1C=NCc1cccc(C(F)(F)F)c1 | inconclusive: 39.8 µM [inhibitor, partial curve, poor fit] | – |
| Cc1ccc(S(=O)(=O)N2C[C@@H](F)C[C@H]2C(=O)N2CCc3ccccc3C2)cc1F | inconclusive: 17.8 µM [inhibitor, full curve, poor fit] | – |
| Cc1nn(Cc2cccc(Cl)c2)c(C)c1NS(=O)(=O)c1c(C)nn(C(F)F)c1C | – | inactive: 3.49% |
| CC(=O)c1cc(NC(=O)c2ccc(C)cc2)c(=O)oc1/C=C/N(C)C | inconclusive: 89.1 µM [inhibitor, single point] | – |
| COc1cc(C)cc2oc(=O)c(CC(=O)NCc3ccc(F)cc3)c(C)c12 | – | inactive: -1.81% |
| O=C(Nc1ccc2snnc2c1)N1CCOCC1 | inconclusive: 44.7 µM [inhibitor, partial curve, poor fit] | – |
| CCOc1ccc2c(c1)c(=O)c(S(=O)(=O)c1ccccc1)cn2CC(=O)Nc1cccc(Cl)c1 | inconclusive: 4.47 µM [inhibitor, full curve, poor fit] | – |
| CCC(C)c1ccc(NC(=O)N2CCN(Cc3ccc(Cl)s3)CC2)cc1 (stereo not drawn) | inconclusive: 56.2 µM [inhibitor, partial curve, poor fit] | – |
| O=C(O)Cc1ccc(C(=O)c2ccc(Cl)cc2Cl)s1 | – | inactive: -24.6% |
| N=c1c(C(=O)NCc2ccco2)cc2c(=O)n3ccccc3nc2n1C1CCCC1 | inconclusive: 11.2 µM [inhibitor, partial curve, poor fit] | – |
| O=c1[nH]c2ccccc2nc1Cc1ccccc1 | inconclusive: 100 µM [inhibitor, single point] | – |
| O=C(c1ccccc1)N1CCCc2ccccc21 | – | inactive: 0% |
| Cc1nc(NC(N)=S)sc1C(=O)Nc1ccccc1 | inconclusive: 70.8 µM [inhibitor, partial curve, poor fit] | – |
| NC(=O)[C@@H]1CCCCNc2c(F)cc([N+](=O)[O-])cc2C(=O)N[C@@H](CC(=O)O)C(=O)NCC(=O)N1 | inconclusive: 44.7 µM [inhibitor, partial curve] | – |
| CCCCCOC(=O)CSc1nc2c(c(=O)[nH]c(=O)n2C)n1Cc1ccc(C)cc1 | inconclusive: 28.2 µM [inhibitor, partial curve] | – |
| COC[C@@H]1CN(Cc2cnn(C)c2)C[C@H]1C(=O)N(C)C | – | inactive: 57.7% |
| COc1ccc(CNc2ncc(-c3ccccc3)n2C)cc1 | inconclusive: 1.41 µM [inhibitor, full curve] | – |
| COc1ccc(CNC(=S)N2CCN(Cc3ccccc3)CC2)cc1 | inconclusive: 2.51 µM [inhibitor, full curve, poor fit] | – |
| S=c1[nH]nc(-c2ccccc2Br)n1Cc1ccccc1 | inconclusive: 44.7 µM [inhibitor, partial curve, poor fit] | – |
| COc1ccccc1CNc1ncncc1-c1ccc2c(c1)OCO2 | inconclusive: 22.4 µM [inhibitor, partial curve, poor fit] | – |

| Structure (SMILES) | Potency | activity change, negative = inhibition |
| --- | --- | --- |
| Cc1cccc(OCC(=O)NC(=S)NNC(=O)c2ccncc2)c1 | active: 5.01 µM | – |
| COc1ccc(NC(=O)c2cccc(N3C(=O)C4C5CCC(C5)C4C3=O)c2)cc1 (stereo not drawn) | active: 6.31 µM | – |
| CC1C/C(=C/c2cccs2)C(=O)/C(=C/c2cccs2)C1 (stereo not drawn) | inconclusive: 56.2 µM [inhibitor, partial curve, poor fit] | – |
| O=C(Nc1ccc2oc(-c3ccccc3)nc2c1)c1ccco1 | inconclusive: 2.82 µM [inhibitor, full curve, poor fit] | – |
| COc1ccccc1C(C)N(C)C(=O)Cc1c(C)nc2ccccc2c1C (stereo not drawn) | inconclusive: 56.2 µM [inhibitor, partial curve, poor fit] | – |
| Cc1oc(-c2ccccc2)nc1C(=O)OCC(=O)NC1(C#N)CCCCC1 | inconclusive: 89.1 µM [inhibitor, single point] | – |
| CCN1C(=O)[C@H]2[C@@H](c3ccc(-c4ccc(Cl)c(Cl)c4)c(OC)c3)N[C@@](Cc3ccccc3)(C(=O)OC)[C@H]2C1=O | inconclusive: 35.5 µM [inhibitor, partial curve, poor fit] | – |
| Cn1c(N)c(C(=O)Nc2ccc(-c3ccccc3)cc2)sc1=S | – | inactive: -11.5% |
| CC(CC(=O)Nc1ccc(F)c([N+](=O)[O-])c1)c1ccccc1 (stereo not drawn) | – | inactive: -6.58% |
| CN1CCc2cc(Cl)c(O)cc2[C@@H](c2ccccc2)C1 | inconclusive: 89.1 µM [inhibitor, partial curve, poor fit] | – |
| Nc1nc(-c2ccccc2)c(-c2ccccc2)s1 | inconclusive: 2.51 µM [inhibitor, full curve, poor fit] | – |
| COc1ccc(OCCOC(=O)c2ccc3c(c2)NC(=O)CS3)cc1 | inconclusive: 112 µM [inhibitor, single point] | – |
| COc1ccccc1C(=O)N1[C@@H](C(C)C)COc2cc(Br)ccc2S1(=O)=O | inconclusive: 100 µM [inhibitor, single point] | – |
| CCOC(=O)c1cnc2ccc(C)cc2c1Nc1ccc(N(CC)CC)cc1 | – | inactive: -4.01% |
| O=C1NC(=S)N/C1=C/c1ccc2c(c1)OCO2 | – | inactive: -11.5% |
| Cc1nc(-c2c3n(c(=O)n(CC(=O)NCc4ccccc4)c2=O)CCCC3)no1 | – | inactive: 16% |
| CC(=O)n1cc(Nc2ccc([N+](=O)[O-])cc2)c2ccccc21 | inconclusive: 56.2 µM [inhibitor, partial curve, poor fit] | – |
| Cc1oc(C(=O)O)cc1CSCc1cc(C(=O)O)c(C)o1 | inconclusive: 31.6 µM [inhibitor, partial curve, poor fit] | – |
| CCOC(=O)c1cnn(-c2ccccc2)c1NC(=O)CN1CCOCC1 | inconclusive: 70.8 µM [inhibitor, partial curve, poor fit] | – |
| CC(NO)/C(=N\O)c1cccs1 (stereo not drawn) | – | inactive: -10.3% |
| Cn1nc(C2CCNC2)c2c(C(=O)NCc3cccs3)cc(C3CC3)nc21 (stereo not drawn) | inconclusive: 25.1 µM [inhibitor, partial curve, poor fit] | – |
| CN(C)C(=O)CN1C(=O)CO[C@H](c2ccc(NC(=O)c3ccccc3)cc2)[C@H]1CO | – | inactive: 40.6% [at 176 µM] |
| Cc1ccc(Cn2c(=O)n(CCCCC(=O)NCc3ccccc3Cl)c(=O)c3ccccc32)cc1 | – | inactive: -20.1% |

Among those listed so far, 8 contain a Cl atom:

| Structure (SMILES) | Potency | activity change, negative = inhibition |
| --- | --- | --- |
| Oc1ccc(Cl)cc1C=NCc1cccc(C(F)(F)F)c1 | inconclusive: 39.8 µM [inhibitor, partial curve, poor fit] | – |
| Cc1nn(Cc2cccc(Cl)c2)c(C)c1NS(=O)(=O)c1c(C)nn(C(F)F)c1C | – | inactive: 3.49% |
| CCOc1ccc2c(c1)c(=O)c(S(=O)(=O)c1ccccc1)cn2CC(=O)Nc1cccc(Cl)c1 | inconclusive: 4.47 µM [inhibitor, full curve, poor fit] | – |
| CCC(C)c1ccc(NC(=O)N2CCN(Cc3ccc(Cl)s3)CC2)cc1 (stereo not drawn) | inconclusive: 56.2 µM [inhibitor, partial curve, poor fit] | – |
| O=C(O)Cc1ccc(C(=O)c2ccc(Cl)cc2Cl)s1 | – | inactive: -24.6% |
| CCN1C(=O)[C@H]2[C@@H](c3ccc(-c4ccc(Cl)c(Cl)c4)c(OC)c3)N[C@@](Cc3ccccc3)(C(=O)OC)[C@H]2C1=O | inconclusive: 35.5 µM [inhibitor, partial curve, poor fit] | – |
| CN1CCc2cc(Cl)c(O)cc2[C@@H](c2ccccc2)C1 | inconclusive: 89.1 µM [inhibitor, partial curve, poor fit] | – |
| Cc1ccc(Cn2c(=O)n(CCCCC(=O)NCc3ccccc3Cl)c(=O)c3ccccc32)cc1 | – | inactive: -20.1% |

The list goes on.

| Structure (SMILES) | Potency | activity change, negative = inhibition |
| --- | --- | --- |
| CCOC(=O)C1(C)CCCN(C(=O)c2ccc(OC(F)F)cc2)C1 (stereo not drawn) | inconclusive: 89.1 µM [inhibitor, partial curve, poor fit] | – |
| Cc1ccccc1CNC(=O)CC1C(=O)NCCN1CC1CCCCC1 (stereo not drawn) | inconclusive: 63.1 µM [inhibitor, partial curve, poor fit] | – |
| CCSc1ccccc1C(=O)NC(C)C | – | inactive: -4.6% |
| O=C(NC12CC3CC(CC(C3)C1)C2)c1cc(Br)c[nH]1 | – | inactive: 14.5% |
| CCC1=NS(=O)(=O)c2cc(NC(=O)C3CC3)ccc2N1CC(C)C | – | inactive: 21.6% |
| COC(=O)c1sc(=S)n(-c2ccc(C)cc2)c1N | inconclusive: 56.2 µM [inhibitor, partial curve, poor fit] | – |
| Cc1ccc(C(C(=O)NCc2ccco2)N(Cc2ccco2)C(=O)CNC(=O)c2ccco2)cc1 (stereo not drawn) | – | inconclusive: -48% [inhibitor] |
| CSc1c(SCc2ccccc2)cnn(Cc2ccccc2)c1=O | inconclusive: 3.98 µM [inhibitor, full curve, poor fit] | – |
| O=C(Nc1ccc2oc(-c3ccc4ccccc4c3)nc2c1)c1ccc(Cl)c(Cl)c1 | inconclusive: 89.1 µM [inhibitor, partial curve, poor fit] | – |
| Cc1cc(C)c[n+](C2=C([O-])c3ccccc3C(=O)/C2=N\S(=O)(=O)c2cccs2)c1 | – | inactive: -3.49% |
| O=C(CCN1C(=O)C2CCCCC2C1=O)Nc1cc([N+](=O)[O-])ccc1Cl (stereo not drawn) | inconclusive: 126 µM [inhibitor, single point] | – |
| Cc1cc(CN(Nc2ccccc2)c2ccccc2)cc(C)n1 | inconclusive: 100 µM [inhibitor, partial curve, poor fit] | – |
| COC(=O)CSC1=C(C#N)C(=O)NC(c2ccccc2)S1 (stereo not drawn) | inconclusive: 31.6 µM [inhibitor, partial curve, poor fit] | – |
| COc1ccc2c(C)c(CCC(=O)NCc3ccc(S(N)(=O)=O)cc3)c(=O)oc2c1C | – | inactive: 3.87% |
| CCCOc1ccc(-c2c(C(=O)N/N=C(\C)c3cccnc3)nnn2-c2nonc2N)cc1 | inconclusive: 3.16 µM [inhibitor, single point] | – |
| CCN1CCCC1CN(Cc1cc2cc(OC)ccc2[nH]c1=O)C(=O)NCc1ccccc1 (stereo not drawn) | – | inactive: -6.05% |
| CN(C)c1ccc(C2/C(=C(/O)c3ccccc3)C(=O)C(=O)N2CCCC(=O)O)cc1 (stereo not drawn) | – | inactive: -9.64% |
| O=C(CCc1ccccc1)N1CCCc2ncc(C(=O)N3CCCC[C@@H]3Cc3ccccc3)cc21 | inconclusive: 79.4 µM [inhibitor, partial curve, poor fit] | – |
| Cc1ccc(Nc2nc3ccccc3c(=O)s2)cc1 | – | inactive: -4.03% |
| Cc1ccsc1[C@@H]1CCN(C(=O)c2ccccc2-c2ncc[nH]2)C[C@H]1O | – | inactive: -3.26% |
| Cc1ccc(/C=C/C(=O)N2CCC(Cc3ccccc3)CC2)cc1 | inconclusive: 79.4 µM [inhibitor, partial curve, poor fit] | – |
| Cc1nc2cc(C(F)(F)F)ccc2n1CCNc1nc(-c2ccc(F)cc2)cs1 | inconclusive: 0.447 µM [inhibitor, full curve] | – |

Shown with bars between the fields: entries from further up
Structure (SMILES) | Potency | activity change, negative = inhibition
CCCOc1ccc(-c2c(C(=O)N/N=C(\C)c3cccnc3)nnn2-c2nonc2N)cc1 | inconclusive: 3.16 µM [inhibitor, single point] | –
CCN1CCCC1CN(Cc1cc2cc(OC)ccc2[nH]c1=O)C(=O)NCc1ccccc1 (stereo not drawn) | – | inactive: -6.05%

— PubChem BioAssay AID1671190 (National Center for Advancing Translational Sciences (NCATS), 2021)
